# Laboratory results reported in the supplement of paper PMC3334620.
# The full ranking holds about 33,000 sequences; the median of “E-score (-0.5 to 0.5)” is about -0.0034, and the highest 2% start at about 0.25. This is one part of the list.
# Molecular target: T1, Yap3 (UniProt P38749)
# T1 sequence: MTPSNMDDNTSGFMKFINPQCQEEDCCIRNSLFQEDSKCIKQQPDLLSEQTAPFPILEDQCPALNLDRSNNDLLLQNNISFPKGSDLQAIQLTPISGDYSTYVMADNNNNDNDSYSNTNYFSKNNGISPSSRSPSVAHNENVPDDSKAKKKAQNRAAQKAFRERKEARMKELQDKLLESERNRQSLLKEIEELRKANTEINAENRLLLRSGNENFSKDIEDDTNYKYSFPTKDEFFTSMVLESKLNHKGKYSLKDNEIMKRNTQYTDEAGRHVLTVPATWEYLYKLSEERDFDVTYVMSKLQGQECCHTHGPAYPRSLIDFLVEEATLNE
# Assay: PBM E-score (8-mer binding enrichment) (E-score (-0.5 to 0.5)); higher = stronger / more preferred TF binding
# Details: protein concentration: 100 nM; construct: GST-full length
# How it was run: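 GST-tagged yeast TFs (full-length or DNA-binding domain) were made by PURExpress in vitro transcription/translation and applied at about 100-200 nM to universal all-10-mer Agilent arrays. The arrays were made double-stranded by primer extension, on fresh or once-stripped slides. Bound protein was detected with fluorescent anti-GST, and scans were normalised with masliner. Each ungapped eight-base word, pooled with its reverse complement, received an E-score (modified Wilcoxon-Mann-Whitney statistic) from the Universal PBM Analysis Suite.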
row,Sequence,PBM E-score
1,ACCGTTCT,0.0263
2,CGCAATGC,-0.0367
3,ACCACAGT,0.143
4,ATGTTATG,0.241
5,TCAAAGGA,0.0165
6,GTACGATA,0.126
7,AACGTTTA,0.114
8,GCCACTCC,-0.113
9,AGCCCGTA,-0.194
10,ACGAAGAA,0.282
11,ATTCACAG,0.0188
12,ATGAGAGG,-0.161
13,AGAGCTTG,-0.0861
14,CCCGTCGC,-0.0569
15,AAACACCC,0.0336
16,ACGGAATA,0.175
17,ACGCCGGA,-0.21
18,CCCCAAGG,-0.132
19,CTGCTTCA,-0.184
20,CAAAATTA,0.163
21,AAATCCAC,0.0662
22,GTTGCACA,-0.147
23,CCAACTGA,-0.00042
24,AAACATGT,0.251
25,CGTCATAA,0.155

row,Sequence,PBM E-score
1,CCTGGTCG,-0.188
2,CCAAGTAG,-0.101
3,CGAGATTC,0.0556
4,CATGATAC,0.166
5,CTGGCTGC,-0.235
6,CGTCCCTA,-0.206
7,AGGCAAGC,-0.0963
8,ATATACTG,0.213
9,ATTTTTTC,0.113
10,CGAATGAA,-0.0326
11,GGACAGCA,-0.0442
12,GAGACCCC,-0.195
13,ATTTCCTG,0.202
14,CTTTTGCC,0.177
15,CCAAGGAA,-0.183
16,AATTTTGA,0.169
17,GATCAGTA,0.132
18,AGACTTTG,-0.0746
19,AGGGGGGG,-0.444
20,ACTGCTAG,-0.159
21,GATAAAAA,0.192
22,CCCGTCGA,-0.172
23,AAAGTGTC,-0.0685
24,ACTATGGA,-0.114
25,ACCTCATA,0.0723

row,Sequence,PBM E-score
1,AGAGCTCA,-0.109
2,GCGATCGC,0.191
3,GGAGGTAA,0.028
4,CTCGTGTA,0.00396
5,ATGTGTAG,0.18
6,CGAAACTA,0.0831
7,GGTCATGA,0.0536
8,CAGGTGAC,-0.153
9,CGGTCCTC,-0.175
10,CGATTTGC,-0.0862
11,ATACCTGA,0.131
12,CTCATAAA,0.0264
13,CCTAGACA,-0.257
14,ATCTATGA,0.105
15,AGGCCCCG,-0.275
16,ATCTAGAG,-0.00421
17,AGTGCAAT,0.181
18,CCTCGCGC,-0.0548
19,ATTGGTCG,0.0921
20,GGGACAGA,-0.139
21,GATTACAA,0.154
22,CCGGCGCA,-0.113
23,CAAGACAC,0.0732
24,CGTACTCA,0.0699
25,CGCGACGC,-0.0221

row,Sequence,PBM E-score
1,TCAAGCGA,-0.0261
2,ACAATGAA,0.143
3,GGCTTGAC,0.0242
4,CCCCCCAG,-0.435
5,CGCTGTGA,-0.0572
6,AGCCGGTA,-0.0519
7,ACGTTCCC,-0.0647
8,ATTAATTG,0.245
9,CCAATAGC,-0.2
10,CTGGACAG,-0.104
11,CACACCTC,0.102
12,AAACGATA,0.0765
13,ATTTTAGG,0.0901
14,ATGGGAAG,-0.129
15,AACTTGTG,0.241
16,AGAATCTA,-0.0155
17,CGTCCAAA,0.0569
18,CTGACGAC,0.0156
19,ATATGTTA,0.115
20,TACCCTGA,-0.0597
21,CTTGCAAG,-0.104
22,ATAGCGTA,0.12
23,AATGAGGA,-0.0149
24,ACAGCATC,0.0911
25,AAACACAA,0.213

# Five entries from above, tab-delimited.
row	Sequence	PBM E-score
1	ACCGTTCT	0.0263
24	ACTATGGA	-0.114
3	GGCTTGAC	0.0242
6	AGCCGGTA	-0.0519
14	ATGGGAAG	-0.129

# Two entries from above in a different format:
row	Sequence	PBM E-score
10	CTGGACAG	-0.104
11	CACACCTC	0.102

# (next part)

row,Sequence,PBM E-score
1,ACACGCCG,0.0508
2,GTGCCCGA,-0.123
3,AAGTACTG,0.0174
4,CTTGCGTA,0.0672
5,AGACGCGA,0.0808
6,ACATCCCG,0.0992
7,ACTTGTCA,0.0442
8,AAAAGTAG,0.105
9,CGGAGGAC,-0.182
10,AACGGGTA,0.0762
11,AGAGTGAG,0.0371
12,CACCGACA,-0.0733
13,AGCAAGAC,-0.0111
14,ACGCTCAA,0.113
15,CGCGCCCG,-0.239
16,AGCACAAG,-0.099
17,CTGCCACA,-0.0726
18,CGCAAATC,0.159
19,CGACTGTC,-0.128
20,CGCCGCAC,-0.156
21,AAGCCTGT,0.00346
22,CAGGCTAA,-0.0677
23,CGAAAACA,0.0677
24,GTTACCTA,0.0338
25,AGACCGGA,-0.0997

row,Sequence,PBM E-score
1,ATCCCCTA,-0.0597
2,AATTTCCC,0.217
3,CTTGAAAA,0.161
4,AACCGGTC,0.0496
5,AGATCCGA,0.0264
6,CGAGAGCA,-0.0377
7,ATTTCCGC,0.0972
8,TCACCAAA,0.138
9,CTTTTAGC,-0.00556
10,CGTTGAAA,0.0583
11,ATGCGATG,-0.143
12,GCGTAAAA,0.231
13,GCTCTCTA,-0.101
14,ACGAGATG,-0.00787
15,AGCCGACC,-0.277
16,CATTAGCC,-0.0433
17,CCACTGAA,-0.0362
18,CTCTAAAC,0.167
19,GCGAGCAA,-0.0568
20,CTGGCCAG,-0.153
21,GGATGATA,0.122
22,AACTCTAA,0.0145
23,CGGCAGAG,-0.224
24,AAATGAGA,0.0852
25,CACTGAGA,0.0397

row,Sequence,PBM E-score
1,ACACATTC,0.094
2,AAGTCATG,0.156
3,CCGCAACC,-0.204
4,AGAGGGAA,-0.297
5,AATCGTTG,0.146
6,AATGTTCT,-0.00259
7,AGAGCATG,-0.152
8,TAAATTGA,0.157
9,ATCCCGAA,0.0926
10,TGCATACA,0.0671
11,CGGTACTA,-0.00581
12,GTAGTCTA,0.112
13,CTACTAAG,0.0819
14,AAATAGGT,0.127
15,AGCGCGTA,0.199
16,GCGGACGA,-0.0635
17,ACCTGAAG,0.00792
18,AGTAAACT,0.0322
19,AGAGTGAC,-0.195
20,GGTATCTA,0.0685
21,CTAACGTA,0.191
22,GTAATTAA,0.259
23,ACGCTCTC,-0.165
24,TCATATGA,0.317
25,CCCGAGCG,-0.137

row,Sequence,PBM E-score
1,AAGAACCT,0.131
2,ACGGCAAC,-0.044
3,GATTATGC,0.0614
4,GATATAAA,0.21
5,ACACCACA,0.0359
6,ACCCTTGC,-0.0563
7,CGTTGAGA,-0.0379
8,ACAACTTG,0.152
9,AGGCTTTC,0.061
10,ACTATTGG,0.0824
11,CTATGTCA,0.00564
12,CCTAATGA,0.128
13,GCAGGTCA,-0.128
14,CAGGTCAG,-0.0863
15,ACACAGAA,-0.0211
16,AACCGGGT,-0.172
17,AACCGGTT,0.087
18,AATGCCAT,-0.00745
19,TCCGCCGA,-0.096
20,AGAATTAA,0.0654
21,AAGCAGCC,-0.144
22,GGAAACGA,0.184
23,AGGCTCTG,-0.133
24,TAGAAGGA,-0.239
25,CACCTTAC,0.213

row,Sequence,PBM E-score
1,AACAGAAC,0.104
2,ACCGTCTG,-0.262
3,AAATGGTG,0.0935
4,TCAACTGA,0.0958
5,AGGATAGC,0.0231
6,ATAGCGTG,-0.00896
7,ATTGATTC,0.0449
8,ACACATGA,0.126
9,CCGGGCCG,-0.338
10,TATCCAGA,0.0575
11,ATCTTCGC,0.0966
12,AAAAGGGG,-0.187
13,GGAAATAA,0.222
14,ATACAGTC,-0.0773
15,AACGCACC,-0.0728
16,ACTGTATC,-0.119
17,ATGGAATG,-0.156
18,CGAGATAA,0.29
19,AGGCATAG,0.00733

# Quoted from the listing.
# For PBM E-score, ATGGAATG has -0.156
# For PBM E-score, ACACATGA has 0.126
# For PBM E-score, ATTGATTC has 0.0449
# For PBM E-score, AACGCACC has -0.0728
